Consider nine targets from the supplement of paper PMC12819154, “High-throughput peptide-centric local stability assay extends protein–ligand identification to membrane proteins, tissues and bacteria” (Nature Structural & Molecular Biology, 2025).

Chains of the proteins cited; added tags and fusions are not shown. Lines headed by an entry give the natural chain unless they say otherwise; changes in a name come on top.
UniProt Q9H175: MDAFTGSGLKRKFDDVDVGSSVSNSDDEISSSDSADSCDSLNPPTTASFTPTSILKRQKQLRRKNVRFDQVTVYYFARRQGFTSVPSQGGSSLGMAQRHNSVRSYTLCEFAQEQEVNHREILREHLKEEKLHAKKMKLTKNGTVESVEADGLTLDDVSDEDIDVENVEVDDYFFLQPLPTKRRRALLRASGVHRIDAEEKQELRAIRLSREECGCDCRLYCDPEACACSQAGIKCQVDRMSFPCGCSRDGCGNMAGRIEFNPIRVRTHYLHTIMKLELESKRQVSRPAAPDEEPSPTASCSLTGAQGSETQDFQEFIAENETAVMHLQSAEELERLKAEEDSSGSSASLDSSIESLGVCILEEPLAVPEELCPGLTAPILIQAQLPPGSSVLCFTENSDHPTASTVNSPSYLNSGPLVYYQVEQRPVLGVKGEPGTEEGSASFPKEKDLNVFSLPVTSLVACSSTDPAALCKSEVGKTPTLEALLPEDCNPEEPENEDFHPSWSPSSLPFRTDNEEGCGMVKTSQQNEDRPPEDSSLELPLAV
UniProt Q9H3H1: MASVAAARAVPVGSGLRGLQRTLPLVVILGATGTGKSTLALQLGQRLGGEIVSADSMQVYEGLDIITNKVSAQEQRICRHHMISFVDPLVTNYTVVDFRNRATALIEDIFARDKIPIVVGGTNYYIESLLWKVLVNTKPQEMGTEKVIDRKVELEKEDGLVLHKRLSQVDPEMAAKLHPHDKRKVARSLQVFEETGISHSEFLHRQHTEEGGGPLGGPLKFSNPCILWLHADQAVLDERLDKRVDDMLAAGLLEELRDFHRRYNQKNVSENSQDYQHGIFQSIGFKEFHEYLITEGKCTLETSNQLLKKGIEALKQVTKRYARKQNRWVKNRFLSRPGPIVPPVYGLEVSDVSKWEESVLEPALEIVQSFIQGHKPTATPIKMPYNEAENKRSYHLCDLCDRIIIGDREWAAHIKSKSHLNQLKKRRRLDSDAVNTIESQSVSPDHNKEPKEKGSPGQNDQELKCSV
UniProt Q9H0K6: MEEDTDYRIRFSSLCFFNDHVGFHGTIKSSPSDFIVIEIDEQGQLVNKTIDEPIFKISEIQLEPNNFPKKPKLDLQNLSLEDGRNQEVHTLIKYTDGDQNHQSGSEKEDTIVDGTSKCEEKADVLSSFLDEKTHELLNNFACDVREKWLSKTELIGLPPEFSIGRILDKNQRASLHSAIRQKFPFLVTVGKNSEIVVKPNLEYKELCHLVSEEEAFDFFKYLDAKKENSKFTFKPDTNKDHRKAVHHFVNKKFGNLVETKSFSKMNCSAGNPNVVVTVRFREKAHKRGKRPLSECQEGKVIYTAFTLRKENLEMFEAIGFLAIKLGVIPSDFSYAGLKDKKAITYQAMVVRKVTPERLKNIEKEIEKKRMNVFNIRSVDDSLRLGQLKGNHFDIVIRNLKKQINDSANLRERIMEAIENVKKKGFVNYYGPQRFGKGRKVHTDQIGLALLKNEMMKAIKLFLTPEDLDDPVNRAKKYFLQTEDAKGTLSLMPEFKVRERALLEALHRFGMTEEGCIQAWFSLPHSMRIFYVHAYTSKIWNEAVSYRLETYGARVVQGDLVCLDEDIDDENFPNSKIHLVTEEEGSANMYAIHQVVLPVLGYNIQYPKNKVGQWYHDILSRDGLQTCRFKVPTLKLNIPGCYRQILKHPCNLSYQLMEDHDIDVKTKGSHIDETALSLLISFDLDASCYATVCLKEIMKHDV
UniProt Q9BX68: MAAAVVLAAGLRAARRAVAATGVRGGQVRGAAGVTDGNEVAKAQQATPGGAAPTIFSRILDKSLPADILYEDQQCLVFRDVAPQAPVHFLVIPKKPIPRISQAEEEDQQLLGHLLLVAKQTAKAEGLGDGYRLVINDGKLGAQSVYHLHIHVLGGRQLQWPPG
UniProt Q9BZ68: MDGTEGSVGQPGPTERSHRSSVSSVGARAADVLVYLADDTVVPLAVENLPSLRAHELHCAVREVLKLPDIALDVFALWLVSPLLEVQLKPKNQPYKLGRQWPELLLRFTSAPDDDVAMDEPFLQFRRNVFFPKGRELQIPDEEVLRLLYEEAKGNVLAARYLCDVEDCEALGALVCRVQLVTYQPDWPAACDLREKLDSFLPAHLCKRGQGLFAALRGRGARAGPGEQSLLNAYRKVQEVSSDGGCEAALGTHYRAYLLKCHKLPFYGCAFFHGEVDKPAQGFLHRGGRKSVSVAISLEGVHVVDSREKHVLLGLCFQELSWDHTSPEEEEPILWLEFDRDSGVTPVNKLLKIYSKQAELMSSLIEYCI
UniProt Q9H3H3: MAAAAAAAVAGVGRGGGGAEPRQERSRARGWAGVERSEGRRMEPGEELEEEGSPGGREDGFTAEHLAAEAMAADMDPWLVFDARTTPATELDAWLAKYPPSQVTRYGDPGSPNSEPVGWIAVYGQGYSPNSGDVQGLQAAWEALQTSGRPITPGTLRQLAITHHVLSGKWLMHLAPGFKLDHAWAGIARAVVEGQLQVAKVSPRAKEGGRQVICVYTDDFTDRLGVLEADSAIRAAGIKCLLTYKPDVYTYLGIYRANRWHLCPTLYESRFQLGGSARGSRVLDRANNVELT
UniProt Q9H1M0: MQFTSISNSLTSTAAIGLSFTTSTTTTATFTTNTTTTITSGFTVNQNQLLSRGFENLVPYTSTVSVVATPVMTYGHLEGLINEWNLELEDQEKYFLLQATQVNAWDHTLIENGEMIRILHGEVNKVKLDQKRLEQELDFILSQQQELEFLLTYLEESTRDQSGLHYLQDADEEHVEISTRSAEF
UniProt Q9C073: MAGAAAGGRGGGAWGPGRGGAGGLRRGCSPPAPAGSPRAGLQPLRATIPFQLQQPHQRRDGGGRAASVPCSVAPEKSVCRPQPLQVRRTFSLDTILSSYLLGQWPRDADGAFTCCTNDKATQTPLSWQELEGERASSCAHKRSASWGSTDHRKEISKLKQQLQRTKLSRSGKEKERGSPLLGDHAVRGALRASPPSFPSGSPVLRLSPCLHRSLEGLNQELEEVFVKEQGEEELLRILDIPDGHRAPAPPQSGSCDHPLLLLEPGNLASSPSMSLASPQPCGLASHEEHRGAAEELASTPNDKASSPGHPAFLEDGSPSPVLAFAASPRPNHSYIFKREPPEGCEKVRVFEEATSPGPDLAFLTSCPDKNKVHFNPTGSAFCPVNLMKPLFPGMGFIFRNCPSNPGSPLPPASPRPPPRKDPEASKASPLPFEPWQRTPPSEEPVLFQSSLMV

Some of the results follow. Most values lie at the level of the controls, where differences are scatter.

Compound in this assay: CN[C@@H]1C[C@H]2O[C@@](C)([C@@H]1OC)n1c3ccccc3c3c4c(c5c6ccccc6n2c5c31)C(=O)NC4 [staurosporine]
The experiment in a line: log2 fold change of tryptic peptide abundance, ligand vs vehicle (limited proteolysis) (log2 ratio); higher = more trypsin-susceptible (destabilized). The conditions noted are these: ligand concentration: 20 uM; sample: K562 cleared lysate; digestion: 4 min, 22 C (HT-PELSA RT4min, Orbitrap Astral).
For “CSRNP2 (peptide sequence: TDNEEGCGMVK, peptide start residue: 512) (UniProt Q9H175)”, the log2 fold change came out at 0.45.

Regarding “TRIT1 (peptide sequence: VLVNTKPQEMGTEK, peptide start residue: 133) (UniProt Q9H3H1)”, the log2 fold change worked out at 0.209.

Consider “NACA4P (peptide sequence: NILFVITKPDVYK, peptide start residue: 1964) (UniProt Q9BZK3)”, for which the log2 fold change was -0.109.

As for “PUS7L (peptide sequence: NQEVHTLIK, peptide start residue: 85) (UniProt Q9H0K6)”, the log2 fold change is -0.276.

As to “HINT2 (peptide sequence: GAAGVTDGNEVAK, peptide start residue: 30) (UniProt Q9BX68)”, the log2 fold change was -0.33.

For the target “UniProt Q9BZ68 (peptide sequence: LDSFLPAHLCKR, peptide start residue: 197)”, the log2 fold change came to 0.371.

As to “C11orf68 (peptide sequence: WHLCPTLYESR, peptide start residue: 260) (UniProt Q9H3H3)”, the log2 fold change was -0.326.

“UniProt Q9H1M0 (peptide sequence: ILHGEVNK, peptide start residue: 118)”: the log2 fold change is 0.163.

In the case of “FAM117A (peptide sequence: GSPLLGDHAVR, peptide start residue: 177) (UniProt Q9C073)”, the log2 fold change is 0.204.
